Results from paper PMC5449769.
Results are given in words; binding and its absence hold for the method and conditions named. Some binding calls cover weakened binding; strength is not graded here. Sequences can lack the tags named with a protein.

Amino acid sequences for entries named in this document (tags omitted). Residues count along the entry.
UniProt P02787, residues 20-698: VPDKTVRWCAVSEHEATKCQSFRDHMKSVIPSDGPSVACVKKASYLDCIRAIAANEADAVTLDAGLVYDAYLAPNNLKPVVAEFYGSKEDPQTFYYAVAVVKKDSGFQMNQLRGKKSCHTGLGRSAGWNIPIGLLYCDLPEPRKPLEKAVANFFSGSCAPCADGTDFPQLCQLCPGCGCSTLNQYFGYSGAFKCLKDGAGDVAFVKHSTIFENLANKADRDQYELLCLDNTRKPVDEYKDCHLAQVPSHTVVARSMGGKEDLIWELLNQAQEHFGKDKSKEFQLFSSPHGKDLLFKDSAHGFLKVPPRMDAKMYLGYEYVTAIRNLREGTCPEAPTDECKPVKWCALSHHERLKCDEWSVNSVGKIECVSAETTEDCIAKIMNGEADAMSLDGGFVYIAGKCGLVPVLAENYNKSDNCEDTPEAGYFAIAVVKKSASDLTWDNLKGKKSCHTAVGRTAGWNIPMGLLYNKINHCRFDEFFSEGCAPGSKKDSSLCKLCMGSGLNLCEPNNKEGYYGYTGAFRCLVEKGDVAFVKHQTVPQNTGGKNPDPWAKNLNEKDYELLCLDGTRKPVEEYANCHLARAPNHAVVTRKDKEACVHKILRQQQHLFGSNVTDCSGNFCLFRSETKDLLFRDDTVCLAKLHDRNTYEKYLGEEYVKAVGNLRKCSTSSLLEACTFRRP

What was measured:
[1] = molecular target: T1, Moraxella catarrhalis TbpB without the FLAG-tag (Moraxella catarrhalis strain O35E) (UniProt P0DTW7); assay: flow cytometry on cells; E. coli C43 (DE3) cells expressing TbpB with or without its neighbouring Slam (auto-induction 18 h 37°C; for H. influenzae TbpB 1 mM IPTG, 18°C, 16-18 h), washed in PBS with 1 mM MgCl2, incubated with biotinylated human transferrin (0.05 mg/ml) 1 h at 4°C, then R-PE streptavidin; fixed in 2% formaldehyde; mean fluorescence intensity; only the binder purified
T1 sequence: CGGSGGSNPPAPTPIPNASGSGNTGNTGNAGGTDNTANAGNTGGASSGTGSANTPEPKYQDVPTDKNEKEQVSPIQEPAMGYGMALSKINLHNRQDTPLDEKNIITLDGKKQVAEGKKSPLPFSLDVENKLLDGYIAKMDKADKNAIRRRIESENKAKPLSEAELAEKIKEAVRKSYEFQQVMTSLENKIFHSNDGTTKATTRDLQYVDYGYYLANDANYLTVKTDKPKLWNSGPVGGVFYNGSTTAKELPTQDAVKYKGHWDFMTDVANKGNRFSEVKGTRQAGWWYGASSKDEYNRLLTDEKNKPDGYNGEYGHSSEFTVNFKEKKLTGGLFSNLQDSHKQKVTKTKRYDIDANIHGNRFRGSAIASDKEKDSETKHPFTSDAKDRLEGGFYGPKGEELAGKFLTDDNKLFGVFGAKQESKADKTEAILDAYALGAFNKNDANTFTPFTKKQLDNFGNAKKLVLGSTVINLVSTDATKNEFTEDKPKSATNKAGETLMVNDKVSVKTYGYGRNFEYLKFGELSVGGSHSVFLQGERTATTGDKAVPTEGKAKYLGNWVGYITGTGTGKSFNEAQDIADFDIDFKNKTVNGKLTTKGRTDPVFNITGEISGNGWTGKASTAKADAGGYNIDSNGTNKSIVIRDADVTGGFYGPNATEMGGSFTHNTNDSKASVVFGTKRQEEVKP

[2] = molecular target: T2, Moraxella catarrhalis TbpB-flag (Moraxella catarrhalis strain O35E) (UniProt P0DTW7); assay: as above
T2 sequence: T1 sequence

Substance: biotinylated human transferrin (from UniProt P02787 20-698)
- binding [1]: binds
- binding [2]: binds
